The supplement of paper PMC10849652
The list shows a part of the results.

By UniProt entry, the sequences of proteins in these tests, tags left out. Where a name states a change or a piece, a line headed by the entry shows the natural chain unless it says otherwise.
UniProt A1A5C7: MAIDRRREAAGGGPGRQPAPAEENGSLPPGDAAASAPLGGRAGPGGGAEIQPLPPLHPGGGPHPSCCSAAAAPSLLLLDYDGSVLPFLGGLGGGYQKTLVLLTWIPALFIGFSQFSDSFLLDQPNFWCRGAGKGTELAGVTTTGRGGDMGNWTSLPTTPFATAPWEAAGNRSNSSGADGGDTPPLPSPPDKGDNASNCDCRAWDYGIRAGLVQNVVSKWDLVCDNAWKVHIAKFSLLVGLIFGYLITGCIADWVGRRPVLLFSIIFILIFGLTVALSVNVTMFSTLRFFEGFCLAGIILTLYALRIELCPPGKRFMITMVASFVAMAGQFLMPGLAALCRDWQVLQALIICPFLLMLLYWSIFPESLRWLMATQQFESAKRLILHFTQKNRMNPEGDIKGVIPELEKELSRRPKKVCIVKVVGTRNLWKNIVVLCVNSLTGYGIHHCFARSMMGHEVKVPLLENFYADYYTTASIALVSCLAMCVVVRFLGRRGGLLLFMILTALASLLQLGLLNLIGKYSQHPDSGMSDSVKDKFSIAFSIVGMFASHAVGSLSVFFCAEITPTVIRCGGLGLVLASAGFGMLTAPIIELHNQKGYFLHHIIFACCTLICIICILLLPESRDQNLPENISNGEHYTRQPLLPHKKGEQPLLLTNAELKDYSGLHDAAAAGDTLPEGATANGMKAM
UniProt Q6NXT4: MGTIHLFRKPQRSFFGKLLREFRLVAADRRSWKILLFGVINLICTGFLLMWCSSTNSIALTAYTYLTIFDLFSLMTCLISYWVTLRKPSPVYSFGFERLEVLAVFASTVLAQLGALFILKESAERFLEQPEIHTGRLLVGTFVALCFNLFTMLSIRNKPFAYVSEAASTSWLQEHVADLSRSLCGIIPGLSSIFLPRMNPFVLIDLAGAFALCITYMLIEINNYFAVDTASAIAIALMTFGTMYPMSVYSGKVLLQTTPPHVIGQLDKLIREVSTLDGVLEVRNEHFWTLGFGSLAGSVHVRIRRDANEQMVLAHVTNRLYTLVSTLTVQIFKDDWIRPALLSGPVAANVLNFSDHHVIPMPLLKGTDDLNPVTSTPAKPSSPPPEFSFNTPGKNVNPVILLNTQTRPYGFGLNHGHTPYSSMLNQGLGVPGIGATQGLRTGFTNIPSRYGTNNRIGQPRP
UniProt Q9H1N7: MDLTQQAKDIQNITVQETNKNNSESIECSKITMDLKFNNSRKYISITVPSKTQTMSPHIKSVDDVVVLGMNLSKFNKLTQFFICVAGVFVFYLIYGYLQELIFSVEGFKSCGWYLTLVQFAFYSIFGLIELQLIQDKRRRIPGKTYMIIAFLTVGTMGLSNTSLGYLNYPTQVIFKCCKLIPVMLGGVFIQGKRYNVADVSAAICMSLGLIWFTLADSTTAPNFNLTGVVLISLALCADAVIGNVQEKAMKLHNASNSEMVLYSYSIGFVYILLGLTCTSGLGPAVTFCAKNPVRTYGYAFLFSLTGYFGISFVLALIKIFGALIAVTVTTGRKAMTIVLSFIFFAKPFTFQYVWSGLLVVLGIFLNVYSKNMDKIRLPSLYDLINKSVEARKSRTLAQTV
UniProt Q96A46: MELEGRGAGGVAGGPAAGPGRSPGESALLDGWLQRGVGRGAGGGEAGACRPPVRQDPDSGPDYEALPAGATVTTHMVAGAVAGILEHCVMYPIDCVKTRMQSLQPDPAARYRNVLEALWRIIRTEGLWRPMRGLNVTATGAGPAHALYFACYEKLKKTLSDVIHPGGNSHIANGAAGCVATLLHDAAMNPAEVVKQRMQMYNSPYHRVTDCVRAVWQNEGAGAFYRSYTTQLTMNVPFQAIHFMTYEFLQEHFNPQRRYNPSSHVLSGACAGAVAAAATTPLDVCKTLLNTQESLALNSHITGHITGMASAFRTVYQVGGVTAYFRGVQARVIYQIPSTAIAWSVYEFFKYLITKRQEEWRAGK
UniProt Q86WA9: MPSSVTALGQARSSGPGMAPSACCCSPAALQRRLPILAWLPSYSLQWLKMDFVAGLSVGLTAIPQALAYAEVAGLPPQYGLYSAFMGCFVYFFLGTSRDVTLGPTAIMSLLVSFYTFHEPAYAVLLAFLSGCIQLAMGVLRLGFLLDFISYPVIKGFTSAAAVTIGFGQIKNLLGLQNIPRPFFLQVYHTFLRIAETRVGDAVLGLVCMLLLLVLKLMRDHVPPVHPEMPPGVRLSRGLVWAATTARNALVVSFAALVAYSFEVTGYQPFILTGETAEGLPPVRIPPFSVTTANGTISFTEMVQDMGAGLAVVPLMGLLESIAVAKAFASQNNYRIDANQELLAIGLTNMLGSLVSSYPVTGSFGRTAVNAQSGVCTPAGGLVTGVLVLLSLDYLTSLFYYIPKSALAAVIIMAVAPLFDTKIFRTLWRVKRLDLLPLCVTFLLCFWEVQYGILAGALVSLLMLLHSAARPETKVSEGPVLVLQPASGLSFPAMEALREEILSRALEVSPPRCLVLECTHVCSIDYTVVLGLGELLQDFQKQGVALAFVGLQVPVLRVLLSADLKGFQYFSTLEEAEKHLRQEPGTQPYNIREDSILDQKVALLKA
UniProt Q8IY92: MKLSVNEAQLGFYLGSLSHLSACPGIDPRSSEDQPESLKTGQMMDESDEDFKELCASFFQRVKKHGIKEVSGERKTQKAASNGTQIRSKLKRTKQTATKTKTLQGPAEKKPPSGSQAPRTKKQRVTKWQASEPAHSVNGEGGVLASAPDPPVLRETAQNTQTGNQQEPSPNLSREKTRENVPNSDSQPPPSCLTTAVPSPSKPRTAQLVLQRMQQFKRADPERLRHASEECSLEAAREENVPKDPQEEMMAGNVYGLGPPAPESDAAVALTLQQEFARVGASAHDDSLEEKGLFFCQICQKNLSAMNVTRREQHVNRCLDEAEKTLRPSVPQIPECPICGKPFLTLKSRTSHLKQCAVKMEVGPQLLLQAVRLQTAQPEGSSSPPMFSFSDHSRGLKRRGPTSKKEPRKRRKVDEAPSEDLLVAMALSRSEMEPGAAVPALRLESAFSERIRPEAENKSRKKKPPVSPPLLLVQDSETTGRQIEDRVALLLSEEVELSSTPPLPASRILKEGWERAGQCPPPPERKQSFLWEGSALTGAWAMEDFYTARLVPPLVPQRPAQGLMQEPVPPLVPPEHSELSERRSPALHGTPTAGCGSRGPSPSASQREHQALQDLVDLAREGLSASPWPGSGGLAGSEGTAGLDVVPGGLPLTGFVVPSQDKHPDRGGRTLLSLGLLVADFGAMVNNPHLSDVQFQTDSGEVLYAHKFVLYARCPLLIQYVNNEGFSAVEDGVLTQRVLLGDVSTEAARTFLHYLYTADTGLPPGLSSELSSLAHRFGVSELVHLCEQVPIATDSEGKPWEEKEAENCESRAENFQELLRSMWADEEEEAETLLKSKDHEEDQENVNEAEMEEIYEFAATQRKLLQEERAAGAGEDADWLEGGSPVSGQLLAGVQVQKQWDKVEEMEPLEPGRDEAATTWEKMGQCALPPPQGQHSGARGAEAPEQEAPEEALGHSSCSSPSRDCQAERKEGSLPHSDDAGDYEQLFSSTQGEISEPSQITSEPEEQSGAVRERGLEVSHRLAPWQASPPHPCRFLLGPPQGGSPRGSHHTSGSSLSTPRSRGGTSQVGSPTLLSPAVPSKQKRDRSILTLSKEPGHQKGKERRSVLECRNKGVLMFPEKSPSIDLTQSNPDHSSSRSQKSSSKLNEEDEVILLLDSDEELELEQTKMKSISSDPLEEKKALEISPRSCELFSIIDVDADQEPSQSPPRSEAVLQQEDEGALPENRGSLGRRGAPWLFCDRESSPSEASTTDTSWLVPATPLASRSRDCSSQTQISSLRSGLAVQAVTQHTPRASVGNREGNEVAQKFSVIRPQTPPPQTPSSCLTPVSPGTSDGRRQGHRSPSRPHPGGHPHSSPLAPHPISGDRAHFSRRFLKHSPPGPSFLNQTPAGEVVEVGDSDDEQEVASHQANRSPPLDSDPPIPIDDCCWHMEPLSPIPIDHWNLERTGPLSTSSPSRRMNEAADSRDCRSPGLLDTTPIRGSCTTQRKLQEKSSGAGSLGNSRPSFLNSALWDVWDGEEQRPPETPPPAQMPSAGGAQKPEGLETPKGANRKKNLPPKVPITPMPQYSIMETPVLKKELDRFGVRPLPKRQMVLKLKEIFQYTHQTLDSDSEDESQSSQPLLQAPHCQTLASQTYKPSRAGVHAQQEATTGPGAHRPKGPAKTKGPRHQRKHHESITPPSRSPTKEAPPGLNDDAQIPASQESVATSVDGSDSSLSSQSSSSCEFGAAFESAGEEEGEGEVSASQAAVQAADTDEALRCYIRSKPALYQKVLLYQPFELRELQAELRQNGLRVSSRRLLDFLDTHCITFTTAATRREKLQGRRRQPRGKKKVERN
UniProt O94956: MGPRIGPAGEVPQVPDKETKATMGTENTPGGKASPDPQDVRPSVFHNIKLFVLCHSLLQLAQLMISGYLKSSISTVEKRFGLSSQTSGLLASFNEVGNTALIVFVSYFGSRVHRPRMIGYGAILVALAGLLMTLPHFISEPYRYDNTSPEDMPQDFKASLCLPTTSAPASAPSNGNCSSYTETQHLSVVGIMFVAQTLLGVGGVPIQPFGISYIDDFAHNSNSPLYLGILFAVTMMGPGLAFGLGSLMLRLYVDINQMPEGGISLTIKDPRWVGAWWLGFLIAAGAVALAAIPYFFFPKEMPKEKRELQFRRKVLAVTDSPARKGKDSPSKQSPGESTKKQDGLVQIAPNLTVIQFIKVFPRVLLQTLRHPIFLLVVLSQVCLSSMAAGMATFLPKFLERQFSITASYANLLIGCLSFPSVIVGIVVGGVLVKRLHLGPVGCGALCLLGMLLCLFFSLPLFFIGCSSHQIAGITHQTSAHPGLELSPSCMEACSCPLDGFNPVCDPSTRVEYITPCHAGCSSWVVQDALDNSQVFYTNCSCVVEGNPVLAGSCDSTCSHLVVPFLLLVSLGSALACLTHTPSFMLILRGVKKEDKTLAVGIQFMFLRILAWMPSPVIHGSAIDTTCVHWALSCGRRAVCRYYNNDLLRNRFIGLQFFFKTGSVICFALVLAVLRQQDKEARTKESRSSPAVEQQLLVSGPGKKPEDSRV

What was measured:
Assay in all cases: log2 fold change, soluble protein after heating vs DMSO (PISA); higher = thermal stabilisation; K562 lysate, 10 uM; active = over 0.2 and 3.5 SD of the protein, either way, in both replicates (recomputed)
ibrutinib = compound: C=CC(=O)N1CCC[C@@H](n2nc(-c3ccc(Oc4ccccc4)cc3)c3c(N)ncnc32)C1 [ibrutinib]
Procedure, shortened: (§1)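 Quantification was by TMTpro 16plex LC-MS/MS with equalised channel sums, applied to the supernatant after 21,000xg for 90 min. Samples were crude K562 extract at 1 mg/mL protein in PBS pH 7.4 with 1 mM MgCl2, treated with 10 μM compound for 30 min, heated for 3 min across 48°C-58°C, pooled and brought to 0.5% NP-40 at 4°C. Values are log-two fold changes in thermal stability relative to solvent controls, from duplicates.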

[1] = compound: CC(=O)c1cnc2ccc(-c3cc(Cl)c(O)c(Cl)c3)nc2c1N[C@H]1CC[C@H](CN(C)C)CC1
Procedure, shortened: as §1

ralimetinib = compound: CC(C)(C)Cn1c(N)nc2ccc(-c3[nH]c(C(C)(C)C)nc3-c3ccc(F)cc3)nc21 [ralimetinib]
Procedure, shortened: as §1

[2] = compound: CC(C)(O)CC(=O)NCCn1ccc2ncnc(Nc3ccc(Oc4cccc(C(F)(F)F)c4)c(Cl)c3)c21
Procedure, shortened: as §1

[3] = compound: CC(C)C1=C2N=C(C=C(N2N=C1)NCC3=CC=CC=C3)NCCCCCCN
Procedure, shortened: as §1

[4] = compound: CC1=C(C2=C(C=C1)C(=O)C3=CC=CC=C3N2CCCN)C
Procedure, shortened: as §1

[5] = compound: CC1=C(C=C(C=C1)NC(=O)C2=CC(=CC=C2)C(C)(C)C#N)NC3=CC4=C(C=C3)N=CN(C4=O)C
Procedure, shortened: as §1

[6] = compound: CC1=C(C=C(C=C1)NC(=O)C2=CC(=CC=C2)N(C)C)NC(=O)C3=CC=C(C=C3)O
Procedure, shortened: as §1

[7] = compound: CC1=CC=C(C=C1)SC2=C3C=C(SC3=CN=C2)C(=O)N
Procedure, shortened: as §1

vemurafenib = compound: CCCS(=O)(=O)Nc1ccc(F)c(C(=O)c2c[nH]c3ncc(-c4ccc(Cl)cc4)cc23)c1F [vemurafenib]
Procedure, shortened: as §1

[8] = compound: CCCS(=O)(=O)Nc1ccc(F)c(C(=O)c2c[nH]c3ncc(Cl)cc23)c1F
Procedure, shortened: as §1

barasertib = compound: CCN(CCCOc1ccc2c(Nc3cc(CC(=O)Nc4cccc(F)c4)[nH]n3)ncnc2c1)CCOP(=O)(O)O [barasertib]
Procedure, shortened: as §1

[9] = compound: CC[C@@H]1C(=O)N(C)c2cnc(Nc3ccc(C(=O)NC4CCN(C)CC4)cc3OC)nc2N1C1CCCC1
Procedure, shortened: as §1

volasertib = compound: CC[C@@H]1C(=O)N(C)c2cnc(Nc3ccc(C(=O)N[C@H]4CC[C@H](N5CCN(CC6CC6)CC5)CC4)cc3OC)nc2N1C(C)C [volasertib]
Procedure, shortened: as §1

[10] = compound: CCn1c(C(=O)N(C2CC2)C2CC2)cc2c3c(ncn3C)c(Nc3cc(C)n(C)n3)nc21
Procedure, shortened: as §1

[11] = compound: CCn1cc(-c2ccnc3[nH]c(-c4cccc(CN(C)C)c4)cc23)c(-c2ccc(NC(=O)N(C)C)cc2)n1
Procedure, shortened: as §1

[12] = compound: CN1CCC(CNc2ccc3ncc(-c4cccc(OC(F)(F)F)c4)n3n2)CC1
Procedure, shortened: as §1

saracatinib = compound: CN1CCN(CCOc2cc(OC3CCOCC3)c3c(Nc4c(Cl)ccc5c4OCO5)ncnc3c2)CC1 [saracatinib]
Procedure, shortened: as §1

sotrastaurin = compound: CN1CCN(c2nc(C3=C(c4c[nH]c5ccccc45)C(=O)NC3=O)c3ccccc3n2)CC1 [sotrastaurin]
Procedure, shortened: as §1

[13] = compound: CC1=C(C(CC(=O)N1)C2=CC=C(C=C2)C(F)(F)F)C(=O)NC3=C(C=C4C(=C3)C=NN4)F
Procedure, shortened: as §1

Measured: log2 fold change

SLC22A23 (UniProt A1A5C7)
inactive: ibrutinib 0.128 | [1] -0.062 | ralimetinib -0.053 | [2] -0.022 | [3] -0.038 | [4] -0.093 | [5] 0.058 | [6] 0.027 | [7] -0.081 | vemurafenib 0.016 | [8] 0.001 | barasertib 0.008 | [9] 0.035 | volasertib -0.003 | [10] -0.06 | [11] -0.154 | [12] 0.066 | saracatinib 0.064 | sotrastaurin -0.024

SLC30A6 isoform 2 (UniProt Q6NXT4)
inactive: ibrutinib 0.052 | [1] -0.019 | ralimetinib -0.013 | [2] -0.016 | [3] -0.023 | [13] 0.047 | [5] -0.022 | [6] 0.053 | [7] 0.011 | vemurafenib -0.098 | [8] 0.018 | barasertib 0.146 | [9] 0.105 | volasertib 0.001 | [10] -0.03 | [11] -0.127 | [12] 0.063 | sotrastaurin -0.004

SLC35B3 (UniProt Q9H1N7)
inactive: ibrutinib 0.027 | [1] -0.036 | ralimetinib 0.048 | [2] -0.115 | [3] -0.017 | [13] -0.059 | [4] -0.011 | [5] 0.104 | [6] 0.02 | [7] 0.007 | vemurafenib 0.183 | [8] 0.025 | barasertib 0.171 | volasertib 0.058 | [10] -0.025 | [11] -0.023 | [12] 0.03 | saracatinib 0.08 | sotrastaurin 0

SLC25A28 (UniProt Q96A46)
inactive: [5] 0.168 | vemurafenib -0.441 | [9] 0.205 | sotrastaurin -0.124

SLC26A11 (UniProt Q86WA9)
inactive: [3] 0.253 | [5] 0.088 | [11] -0.043 | [12] 0.273 | sotrastaurin 0.009

SLX4 (UniProt Q8IY92)
inactive: [3] 0.151 | [4] 0 | saracatinib 0.277

SLCO2B1 (UniProt O94956)
inactive: [9] -0.155 | [11] -0.117 | [12] 0.135
